The supplement of paper PMC6924143
The data scatter; read single values as rough.

Tested on: RAW-Blue (mouse TLR9 reporter, RAW 264.7)
Test: mTLR9 reporter activity (SEAP, QUANTI-Blue absorbance) (OD650); higher = stronger mouse TLR9 activation
Details: 3 h
Experimental: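 Synthetic single-stranded 24-mer CpG ODNs were diluted in saline and added to mouse RAW-Blue cells (RAW 264.7 with an NF-kB/AP-1-inducible SEAP reporter; endogenous mouse TLR9), about 1e5 cells/well. After 3 h, SEAP in the supernatant was read with QUANTI-Blue as absorbance at 650 nm. ODN concentration and backbone chemistry are not stated; activity of 0.4 or above is the paper's high-activity class.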

Sequence | mTLR9 reporter activity
TCGCTCGCTTGTCGCGATGTTTGT [ODN180] | 0.132
TGCTCTCACTCGTGCGTCGTGCGT [ODN274] | 0.17
TTTTGTTTTGCAGTGCGTCGCGAT [ODN017] | 0.34
TCGTGATCGCTCGTTTTGTGCGCT [ODN142] | 0.617
TCGCGTTCGTCGTGTTTGTGCTCT [ODN151] | 0.657
TTTTGCGAGCGCAGTTTTCGCTGT [ODN028] | 0.335
TCCGGGCGGCGCGTTCCCCACGTT [mODN-026] | 0.32
TCGCTCCGGTCGGTTATTCGGCAC [mODN042] | 0.5
TGCGTAGCTGCTCTGAGTGCGTTT [ODN081] | 0.16
TCCGTTCTCGCGCGTTGGGCTCCG [mODN061] | 0.56
TGTTAGACGCTTAGTGCGCGTCTT [ODN069] | 0.187
TGCTCTCGAGCTGTCGTACGCGTT [ODN106] | 0.14
TCGCGCTCTGTTCGCGTTGTGTTT [ODN252] | 0.191
TCGTGCGCGCGTCGCATTGTTCTT [ODN176] | 0.134
TCGAGTACGTTGTTGACTGCAGTT [ODN105] | 0.435
TCCGCGCGCCCGCGGGTTCCTTAC [mODN-015] | 0.26
TTTTGCGCGTTTGCGATTTTGCGT [ODN047] | 0.224
TAGTCGTTCGTTCGCGTTCGCTGT [ODN249] | 0.306
TTTTGCTTTTCGCGCGAGCAGCGT [ODN015] | 0.315
TCGCGTTCGCGTGATCGTTTTGCT [ODN129] | 0.268
TCGCGCGTTGTTCGTTGTTGTCAT [ODN134] | 0.739
TTGCTTCGCTAGCGTCGCGCGTGT [ODN230] | 0.163
TTCGCAGCGCGTGTCTTCGTTCGT [ODN261] | 0.111
TCGCGATGTCGTCGCGTGTGCGTT [ODN225] | 0.191

Not a retest: an excerpt of the list.
Sequence | mTLR9 reporter activity
TGTTAGACGCTTAGTGCGCGTCTT [ODN069] | 0.187
TGCTCTCGAGCTGTCGTACGCGTT [ODN106] | 0.14
TCGCGCTCTGTTCGCGTTGTGTTT [ODN252] | 0.191
TCGTGCGCGCGTCGCATTGTTCTT [ODN176] | 0.134
TCGAGTACGTTGTTGACTGCAGTT [ODN105] | 0.435

(next part)

Sequence | mTLR9 reporter activity
TCGACCGCCGTTGGCTGTTGGCCG [mODN-024] | 0.52
TTTTTGCGACGCGCGTGCGTTTTT [ODN021] | 0.33
TCGAGGGCTTCGTTTCGCGCACCA [mODN-008] | 0.49
TGCTCGTCGTGTCGCTTCGTTTGT [ODN256] | 0.145
TTCGCGTTTGCGTTTCGCGTGTCT [ODN243] | 0.23
TCGCGACTCATGCAAGTGTGTGTT [ODN100] | 0.125
TTTTCGAGTTGCGCGCGATTTTGT [ODN040] | 0.289
TCGCACCGCGCTTCCTTGGCCCGG [mODN041] | 0.55
TCGCTTCCTTTCGCCGGGCGATGC [mODN72] | 0.55
TGAGCTCTGTCTTGAGCTGCGTTT [ODN066] | 0.151
TGCGTGCTAATGCTGTGTACGCTT [ODN090] | 0.12
TGCGTTCGTCTTGCGCTCGTGACT [ODN193] | 0.17
TGCTCGCGACGTGTGTGTTTCGTT [ODN257] | 0.151
TCTTTCGACCGGGGTTCCCGCGAT [mODN80] | 0.44
TTCGTCGAGTCGCGCGTTCGCTGT [ODN239] | 0.226
TCGAGCGTGAGTTTTTTTTGCGCT [ODN051] | 0.256
TTTTTCGTGCAGCGCGTGTTTTGT [ODN030] | 0.42
TCGTTATGCGCGCGTTCGTCTCGT [ODN701] | 0.764
TCGCGCGTGTTGCGCTTATCGTGT [ODN174] | 0.102
TTTTGTCGAGCGCGCAGTGTTTTT [ODN036] | 0.38
TGTTTTGTGTCGCGCTAGCGTTTT [ODN054] | 0.235
TCGTGTGTCGCGTAGTGTCGTGCT [ODN643] | 0.464
TGTTGCGCGCGACTTTTGAGTTTT [ODN025] | 0.32
TCTTGCGGATCCCGGTTCACGCCG [mODN032] | 0.25

Sequence | mTLR9 reporter activity
TCGCTGCGTCTCGCGTCGTTGTCT [ODN540] | 0.419
TGTGCGTTTTGCTTTTTGCGCGCT [ODN010] | 0.409
TCCTCGGTTTATTCGGACGCGCGC [mODN034] | 0.55
TCGCTAAGTGTGCGCGCGACGTTT [ODN087] | 0.185
TCGCGCGACGTTGTTTTGTCTTGT [ODN125] | 0.264
TTGCGCTCACATGTGCAGCGTGTT [ODN084] | 0.146
TTCGCGCGCGCGTCTGTGTTGCGT [ODN138] | 0.15
TCGGGCTTCGTACGGTCCGACCTT [mODN-028] | 0.64
TGTTTCTCGCGTCTGTGCGATCGT [ODN158] | 0.229
TCGTTCTCTGCGCGCGCTTTGCGT [ODN671] | 0.423
TGCACAGTGTGTAGACGTGCTTTT [ODN099] | 0.09
TTTTGCGTGCGACGTCGCGCTTTT [ODN023] | 0.377
TGTGTGCACGTCGTGCATCGATTT [ODN103] | 0.085
TCTTCGCGCTTCGTCGCGTGACGT [ODN221] | 0.165
TCGTAAGCGTGTCGACGTTGACTT [ODN095] | 0.36
TCGTTGTCGTGCGCGCGTGATTGT [ODN128] | 0.413
TACGTGTCGACGCGCAGATGTCTT [ODN093] | 0.24
TGTGAGCGCGTTTTACTTTTGCGT [ODN052] | 0.178
TCGCCTCACTACGGCGGGTTCGTT [mODN055] | 0.32
TCTCTGGACGGCGTTCGGCGCCTT [mODN98] | 0.57
TGTCTTTTGTGACGCGCGTTTTGT [ODN032] | 0.309
TCGTTTGCGCGTCGTGCTACTGCT [ODN692] | 0.465
TTTCGTTTCGCGCTGTGACGCGTT [ODN268] | 0.153
TGCGCGTTGCATATAGTGCGCGTT [ODN102] | 0.09

Sequence | mTLR9 reporter activity
TATGTCGCGTGCGCGTTTTGTTTT [ODN060] | 0.212
TGACGTCGCGTGTCTTCGTTTGCT [ODN227] | 0.233
TGTTTTAGCGCGTGCGTTTTACGT [ODN056] | 0.164
TCGTCCTTCGACGAGCTTCGGCAG [mODN-030] | 0.35
TGCGTGCGAGCTTTTTTTTGACGT [ODN058] | 0.143
TCGTGTCGCGTTCGTTCTTGTAGT [ODN168] | 0.287
TCGCTCGTCGCGCGCGTTGCTATT [ODN190] | 0.146
TCGCACGCGTCGCGTGTATTTGTT [ODN104] | 0.11
TTTTGCGCGAGTTTTGCTTCGCGT [ODN053] | 0.186
TTTTCGTGCGCAAGTTTTGCGTGT [ODN027] | 0.404
TTGCGACGCTGCGTCTTTTGCGCT [ODN232] | 0.199
TGCGCGTCTGTCTCTCGCGTGAGT [ODN255] | 0.141
TCGCCTTGACGGGGGTTCGCCCGC [mODN78] | 0.6
TCGTCTCGCGTGCGCTATTGTGTT [ODN117] | 0.315
TCGTTGCGCATCGCGCTGTTGTCT [ODN121] | 0.145
TCGTCTCGCGTGCGATGCGTCTGT [ODN146] | 0.348
TCGCTCGATGCGCGTTCGTCTTGT [ODN638] | 0.849
TCGTGCGCGCGCTGTCTTGTTGCT [ODN152] | 0.306
TCGTTTCGCGTGTTCGACGTTCGT [ODN111] | 0.306
TGCGCGCGTTTTGACTTGTTTCGT [ODN112] | 0.209
TTGTCGCGTGACTTGCGTCGTCGT [ODN216] | 0.201
TCGTGTTCTCGTCGTTGTTGACGT [ODN855] | 0.463
TCGTTTCTTCGCTGGACCCCGGCG [mODN038] | 0.53
TCGCGAGCGTGCGTCTTTTCGCGT [ODN173] | 0.148

Sequence | mTLR9 reporter activity
TCGTTATCTTGGCGGCCGGCCCGT [mODN88] | 0.47
TCGCTGCGTTCGTCGTGTTGATGT [ODN719] | 1.14
TGACGTGCAGTGTACTGACTCGTT [ODN107] | 0.06
TCCGCGCCCGGTTCCGGTTCATGT [mODN102] | 0.45
TCGCGCGCTTTGTTCAGTCGCTGT [ODN195] | 0.256
TCCCCGATTCGCGGCGGATTACCG [mODN050] | 0.34
TCCCGCATTAGCCGCGGGTGCGTT [mODN101] | 0.4
TTTTCTTTTGTCGCGCGTGAGAGT [ODN006] | 0.358
TCGCGCGCTCGAGTCGCGCTCTTT [ODN187] | 0.114
TCGCGTTGTCGGCCCGTTCCTCCG [mODN056] | 0.84
TCGTTCGTGCGTCTTGCGACTTGT [ODN132] | 0.52
TCGTTGGATCGCCCGATCTTGCGC [mODN060] | 0.49
TCCGTTGGCGCCGGGGCGCCCCTT [mODN-012] | 0.32
TTCGCGTGCAGTAGACTTGACGTT [ODN071] | 0.47
TCGTGTTTTCGCGAGCGCAGTTTT [ODN003] | 0.42
TGCAGCGTCTCGCGCGTCGTCTTT [ODN234] | 0.181
TTGCTGCTGCTAGAGTGCGAGCTT [ODN079] | 0.139
TCGAGGCCGGATTCCTCGTTTCCG [mODN-018] | 0.16
TCGCCCGTACTTGGGCGCGGCGTT [mODN052] | 0.3
TCTGTCTGTCGCGTGTACGTTCGT [ODN209] | 0.135
TCGCCGTTCCACCCGGGGCGATTG [mODN97] | 0.48
TCGCTCGTTGCGCTGTGTTCGATT [ODN136] | 0.698
TCGTGAGTTAGTCGAGCGTCGTTT [ODN101] | 0.12
TTGCGTTGCAGCGTCGCTCGCTGT [ODN267] | 0.176
